# Test results: the supplement of paper PMC10849652
# Sequences of proteins named here, by UniProt entry; tags and fusion partners are left off. A change or cut given only in a name is not applied to a line headed by its entry.
# UniProt Q92733: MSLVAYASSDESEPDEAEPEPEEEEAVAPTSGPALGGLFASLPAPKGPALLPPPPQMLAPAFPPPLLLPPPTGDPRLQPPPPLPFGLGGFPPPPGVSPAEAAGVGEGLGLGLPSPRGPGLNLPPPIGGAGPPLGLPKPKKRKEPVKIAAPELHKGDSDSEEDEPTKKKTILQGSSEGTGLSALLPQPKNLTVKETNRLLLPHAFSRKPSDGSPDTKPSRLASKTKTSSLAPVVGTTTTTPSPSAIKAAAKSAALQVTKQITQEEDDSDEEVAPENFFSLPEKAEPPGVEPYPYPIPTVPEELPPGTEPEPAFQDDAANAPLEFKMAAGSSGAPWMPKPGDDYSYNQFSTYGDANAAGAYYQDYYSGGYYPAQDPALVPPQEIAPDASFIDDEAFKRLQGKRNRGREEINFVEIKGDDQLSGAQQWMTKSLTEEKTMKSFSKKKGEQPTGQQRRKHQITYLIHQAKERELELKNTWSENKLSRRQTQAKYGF
# UniProt Q5H9R7: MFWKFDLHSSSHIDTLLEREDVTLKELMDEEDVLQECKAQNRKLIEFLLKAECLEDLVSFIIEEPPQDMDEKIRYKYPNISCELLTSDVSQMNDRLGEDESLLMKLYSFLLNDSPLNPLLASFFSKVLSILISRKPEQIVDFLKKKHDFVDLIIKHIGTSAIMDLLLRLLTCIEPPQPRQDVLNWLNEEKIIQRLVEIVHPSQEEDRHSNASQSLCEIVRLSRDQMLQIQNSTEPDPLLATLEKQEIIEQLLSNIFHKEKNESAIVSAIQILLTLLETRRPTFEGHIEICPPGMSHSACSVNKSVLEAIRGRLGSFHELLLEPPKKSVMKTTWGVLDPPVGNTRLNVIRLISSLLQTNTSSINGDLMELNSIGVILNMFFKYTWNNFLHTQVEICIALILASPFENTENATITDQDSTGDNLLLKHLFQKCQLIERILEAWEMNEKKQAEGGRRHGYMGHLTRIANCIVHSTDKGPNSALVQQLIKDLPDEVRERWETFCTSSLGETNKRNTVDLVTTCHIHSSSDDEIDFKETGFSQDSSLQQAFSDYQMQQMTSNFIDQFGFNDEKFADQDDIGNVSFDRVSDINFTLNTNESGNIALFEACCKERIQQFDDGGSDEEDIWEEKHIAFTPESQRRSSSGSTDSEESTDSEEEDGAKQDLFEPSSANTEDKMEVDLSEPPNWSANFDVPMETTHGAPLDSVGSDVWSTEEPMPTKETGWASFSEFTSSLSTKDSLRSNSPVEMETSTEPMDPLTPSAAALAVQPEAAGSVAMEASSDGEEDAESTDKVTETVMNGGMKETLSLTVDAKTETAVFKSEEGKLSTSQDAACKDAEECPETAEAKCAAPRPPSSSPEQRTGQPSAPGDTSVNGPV
# UniProt Q13356: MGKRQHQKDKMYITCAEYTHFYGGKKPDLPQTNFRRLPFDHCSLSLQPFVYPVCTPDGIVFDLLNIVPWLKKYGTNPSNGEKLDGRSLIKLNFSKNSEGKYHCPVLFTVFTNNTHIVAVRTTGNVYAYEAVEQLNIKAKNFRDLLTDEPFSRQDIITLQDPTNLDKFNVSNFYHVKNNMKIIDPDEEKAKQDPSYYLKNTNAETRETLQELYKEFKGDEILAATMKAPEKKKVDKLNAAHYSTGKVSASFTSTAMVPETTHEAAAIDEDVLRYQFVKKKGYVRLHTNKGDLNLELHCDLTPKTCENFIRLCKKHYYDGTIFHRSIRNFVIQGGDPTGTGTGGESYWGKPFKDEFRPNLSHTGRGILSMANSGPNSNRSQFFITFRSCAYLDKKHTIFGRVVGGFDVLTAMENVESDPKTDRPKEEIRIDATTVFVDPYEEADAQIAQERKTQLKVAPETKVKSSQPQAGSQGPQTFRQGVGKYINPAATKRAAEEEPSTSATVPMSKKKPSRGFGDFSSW
# UniProt Q9HCU5: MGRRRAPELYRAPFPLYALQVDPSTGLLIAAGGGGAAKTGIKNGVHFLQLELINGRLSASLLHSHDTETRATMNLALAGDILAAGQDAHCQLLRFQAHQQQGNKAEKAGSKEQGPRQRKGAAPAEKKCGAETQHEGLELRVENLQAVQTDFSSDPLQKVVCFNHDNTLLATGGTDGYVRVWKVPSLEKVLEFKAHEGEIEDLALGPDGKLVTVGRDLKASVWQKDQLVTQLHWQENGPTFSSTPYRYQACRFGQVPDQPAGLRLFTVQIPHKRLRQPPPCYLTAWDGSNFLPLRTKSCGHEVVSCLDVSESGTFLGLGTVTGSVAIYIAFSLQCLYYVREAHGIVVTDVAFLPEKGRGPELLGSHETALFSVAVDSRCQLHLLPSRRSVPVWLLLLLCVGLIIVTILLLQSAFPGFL
# UniProt O43314: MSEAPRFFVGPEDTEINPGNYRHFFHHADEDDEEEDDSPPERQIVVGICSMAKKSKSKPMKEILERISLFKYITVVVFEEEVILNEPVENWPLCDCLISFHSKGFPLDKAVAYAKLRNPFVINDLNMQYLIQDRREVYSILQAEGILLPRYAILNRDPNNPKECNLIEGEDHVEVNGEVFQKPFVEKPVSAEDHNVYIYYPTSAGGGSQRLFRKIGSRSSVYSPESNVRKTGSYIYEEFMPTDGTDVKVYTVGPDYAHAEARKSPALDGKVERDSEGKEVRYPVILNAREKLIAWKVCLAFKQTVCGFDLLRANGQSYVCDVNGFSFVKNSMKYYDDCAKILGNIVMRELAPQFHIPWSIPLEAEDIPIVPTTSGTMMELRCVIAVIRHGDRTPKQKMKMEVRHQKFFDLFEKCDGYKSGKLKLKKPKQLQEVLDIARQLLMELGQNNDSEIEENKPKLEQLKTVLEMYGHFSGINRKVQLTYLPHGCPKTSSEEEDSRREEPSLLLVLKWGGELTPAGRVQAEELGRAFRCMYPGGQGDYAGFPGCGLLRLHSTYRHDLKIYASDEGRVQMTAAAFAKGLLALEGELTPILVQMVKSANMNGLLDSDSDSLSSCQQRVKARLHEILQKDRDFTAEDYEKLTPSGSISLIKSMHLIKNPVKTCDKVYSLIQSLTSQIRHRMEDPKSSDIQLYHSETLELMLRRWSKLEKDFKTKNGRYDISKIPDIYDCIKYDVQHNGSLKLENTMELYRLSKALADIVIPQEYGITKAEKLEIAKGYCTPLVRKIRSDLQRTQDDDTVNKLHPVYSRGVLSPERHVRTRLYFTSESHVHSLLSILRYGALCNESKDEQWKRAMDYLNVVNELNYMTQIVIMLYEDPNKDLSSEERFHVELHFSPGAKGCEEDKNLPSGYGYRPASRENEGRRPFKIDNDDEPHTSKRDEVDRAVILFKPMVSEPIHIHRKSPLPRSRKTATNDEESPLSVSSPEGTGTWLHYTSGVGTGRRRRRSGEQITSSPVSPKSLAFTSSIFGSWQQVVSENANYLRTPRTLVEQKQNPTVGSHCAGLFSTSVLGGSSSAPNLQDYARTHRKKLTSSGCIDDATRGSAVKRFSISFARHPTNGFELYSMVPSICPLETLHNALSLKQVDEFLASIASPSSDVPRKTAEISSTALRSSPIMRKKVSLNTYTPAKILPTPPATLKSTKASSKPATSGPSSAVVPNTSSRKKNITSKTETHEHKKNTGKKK
# UniProt P49642: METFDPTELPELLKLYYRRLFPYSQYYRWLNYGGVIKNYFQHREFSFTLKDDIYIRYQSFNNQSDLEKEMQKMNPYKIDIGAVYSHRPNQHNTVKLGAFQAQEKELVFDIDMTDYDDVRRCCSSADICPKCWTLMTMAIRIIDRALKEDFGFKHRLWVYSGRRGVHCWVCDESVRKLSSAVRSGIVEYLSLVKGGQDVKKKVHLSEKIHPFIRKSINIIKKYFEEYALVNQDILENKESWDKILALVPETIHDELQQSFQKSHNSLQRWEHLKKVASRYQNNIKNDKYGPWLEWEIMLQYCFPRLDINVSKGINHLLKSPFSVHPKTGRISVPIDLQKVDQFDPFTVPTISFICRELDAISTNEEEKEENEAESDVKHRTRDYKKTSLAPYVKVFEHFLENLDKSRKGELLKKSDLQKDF
# UniProt Q9ULJ8: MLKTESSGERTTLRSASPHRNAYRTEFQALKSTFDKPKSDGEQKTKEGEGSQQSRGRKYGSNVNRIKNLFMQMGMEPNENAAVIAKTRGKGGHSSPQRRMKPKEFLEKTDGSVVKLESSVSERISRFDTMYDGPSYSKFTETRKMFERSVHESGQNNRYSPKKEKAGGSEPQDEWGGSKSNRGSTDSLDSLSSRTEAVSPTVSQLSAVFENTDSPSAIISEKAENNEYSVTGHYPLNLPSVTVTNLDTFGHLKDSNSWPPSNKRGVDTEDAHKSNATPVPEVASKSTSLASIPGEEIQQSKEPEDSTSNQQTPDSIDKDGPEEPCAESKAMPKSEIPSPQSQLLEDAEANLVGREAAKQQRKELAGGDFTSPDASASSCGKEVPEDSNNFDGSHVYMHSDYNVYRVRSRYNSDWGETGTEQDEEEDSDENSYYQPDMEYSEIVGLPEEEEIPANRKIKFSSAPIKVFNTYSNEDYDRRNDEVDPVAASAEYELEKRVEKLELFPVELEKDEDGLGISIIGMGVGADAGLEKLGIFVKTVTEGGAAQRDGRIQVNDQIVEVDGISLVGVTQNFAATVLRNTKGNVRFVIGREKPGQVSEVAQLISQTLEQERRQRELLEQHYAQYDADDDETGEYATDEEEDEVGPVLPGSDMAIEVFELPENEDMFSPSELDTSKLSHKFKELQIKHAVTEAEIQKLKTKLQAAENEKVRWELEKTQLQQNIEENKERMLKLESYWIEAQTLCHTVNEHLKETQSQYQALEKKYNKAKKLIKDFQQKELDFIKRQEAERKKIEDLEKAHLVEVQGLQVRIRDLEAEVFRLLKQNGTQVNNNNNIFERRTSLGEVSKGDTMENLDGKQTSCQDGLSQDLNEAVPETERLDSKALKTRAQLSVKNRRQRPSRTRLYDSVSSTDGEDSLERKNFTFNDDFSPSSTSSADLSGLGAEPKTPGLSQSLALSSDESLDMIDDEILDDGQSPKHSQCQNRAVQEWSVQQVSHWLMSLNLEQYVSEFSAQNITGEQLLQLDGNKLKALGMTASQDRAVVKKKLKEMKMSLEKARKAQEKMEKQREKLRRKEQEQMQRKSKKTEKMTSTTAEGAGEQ
# UniProt Q6ZMI0: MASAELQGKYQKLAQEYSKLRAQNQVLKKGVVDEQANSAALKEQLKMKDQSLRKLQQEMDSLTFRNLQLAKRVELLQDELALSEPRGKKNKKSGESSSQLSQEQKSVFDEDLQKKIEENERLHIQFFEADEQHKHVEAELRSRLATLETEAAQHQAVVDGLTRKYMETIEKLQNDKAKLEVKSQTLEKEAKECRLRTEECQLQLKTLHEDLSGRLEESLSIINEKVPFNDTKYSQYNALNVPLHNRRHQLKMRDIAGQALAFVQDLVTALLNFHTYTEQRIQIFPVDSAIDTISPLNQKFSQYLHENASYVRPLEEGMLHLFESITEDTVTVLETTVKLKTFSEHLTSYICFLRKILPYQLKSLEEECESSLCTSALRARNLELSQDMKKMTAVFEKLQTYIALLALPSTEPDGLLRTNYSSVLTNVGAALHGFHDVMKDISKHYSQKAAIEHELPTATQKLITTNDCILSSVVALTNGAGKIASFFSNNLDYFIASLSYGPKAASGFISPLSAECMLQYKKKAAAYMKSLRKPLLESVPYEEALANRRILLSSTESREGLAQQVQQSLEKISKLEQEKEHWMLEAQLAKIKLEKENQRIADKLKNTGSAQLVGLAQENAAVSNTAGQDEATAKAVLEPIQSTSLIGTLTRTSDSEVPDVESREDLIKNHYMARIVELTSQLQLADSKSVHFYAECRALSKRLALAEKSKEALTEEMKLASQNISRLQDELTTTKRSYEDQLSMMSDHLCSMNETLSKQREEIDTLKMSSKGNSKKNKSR
# UniProt P13861, whole entry, looked up: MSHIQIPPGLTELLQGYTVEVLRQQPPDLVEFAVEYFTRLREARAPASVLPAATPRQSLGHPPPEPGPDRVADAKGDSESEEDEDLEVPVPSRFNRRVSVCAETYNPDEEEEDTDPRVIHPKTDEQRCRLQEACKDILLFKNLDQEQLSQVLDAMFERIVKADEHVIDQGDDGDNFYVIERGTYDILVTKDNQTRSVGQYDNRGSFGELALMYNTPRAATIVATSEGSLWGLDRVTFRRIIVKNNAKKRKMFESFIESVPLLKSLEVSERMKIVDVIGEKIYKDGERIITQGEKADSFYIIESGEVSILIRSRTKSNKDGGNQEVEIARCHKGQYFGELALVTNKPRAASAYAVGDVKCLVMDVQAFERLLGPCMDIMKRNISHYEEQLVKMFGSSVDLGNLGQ
# The other results are listed elsewhere or left out.
# Tests used:
# Assay in all cases: log2 fold change, soluble protein after heating vs DMSO (PISA); higher = thermal stabilisation; K562 lysate, 10 uM; active = over 0.2 and 3.5 SD of the protein, either way, in both replicates (recomputed)
# [1] = compound: CN1CC[C@H](c2c(O)cc(O)c3c(=O)cc(-c4ccccc4Cl)oc23)[C@H](O)C1 [alvocidib]
# Summary of the method: (§1)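 To prepare the extract, K562 pellets were dounce-homogenised in PBS pH 7.4 with 1 mM MgCl2, giving crude material at 1 mg/mL protein. This was treated with 10 μM compound for 30 min, then heated in aliquots for 3 min over 48°C-58°C before pooling and addition of NP-40 to 0.5% at 4°C. Centrifugation at 21,000xg for 90 min left soluble protein in the supernatant, which TMTpro 16plex LC-MS/MS quantified with equalised channel sums. Results are log-two fold changes in thermal stability compared with solvent controls, from duplicates.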
# [2] = compound: CN1CCc2c(c3ccccc3n2Cc2ccc(C(=O)NO)cc2)C1 [Tubastatin A]
# Summary of the method: as §1
# [3] = compound: CNC(=O)C1=CC=CC=C1NC2=NC(=NC=C2Cl)NC3=C(C=C(C=C3)N4CCOCC4)OC
# Summary of the method: as §1
# [4] = compound: CNC(=O)c1ccc(Nc2ncc(C(F)(F)F)c(NCc3nccnc3N(C)S(C)(=O)=O)n2)cc1 [defactinib]
# Summary of the method: as §1
# [5] = compound: CNc1nc(-c2ccc3c(N)n[nH]c3c2)cc(N2C[C@@H](C(=O)NC3CCCCC3)CC[C@H]2C)n1
# Summary of the method: as §1
# [6] = compound: COC(=O)N[C@@H](C)CNc1nccc(-c2cn(C(C)C)nc2-c2cc(Cl)cc(NS(C)(=O)=O)c2F)n1 [encorafenib]
# Summary of the method: as §1
# [7] = compound: COC(=O)[C@H](CCSC)NC(=O)C1=C(C=C(C=C1)NC[C@H](CS)N)C2=CC=CC=C2
# Summary of the method: as §1
# [8] = compound: COc1cc(Nc2ncc3c(n2)-c2ccc(Cl)cc2C(c2c(F)cccc2OC)=NC3)ccc1C(=O)O [alisertib]
# Summary of the method: as §1
# [9] = compound: COc1cc2nc(-c3cc(F)ccc3O)nc(N[C@@H]3CNC[C@H]3C(C)(C)O)c2cc1OC
# Summary of the method: as §1
# [10] = compound: COc1cc2ncnc(Nc3ccc(F)c(Cl)c3)c2cc1OCCCN1CCOCC1 [gefitinib]
# Summary of the method: as §1
# [11] = compound: CS(=O)(=O)CCNCc1ccc(-c2ccc3ncnc(Nc4ccc(OCc5cccc(F)c5)c(Cl)c4)c3c2)o1 [lapatinib]
# Summary of the method: as §1
# [12] = compound: CS(=O)(=O)N1CCN(Cc2cc3nc(-c4cccc5[nH]ncc45)nc(N4CCOCC4)c3s2)CC1 [pictilisib]
# Summary of the method: as §1
# [13] = compound: C[C@@H](Oc1cc(-c2cnn(C3CCNCC3)c2)cnc1N)c1c(Cl)ccc(F)c1Cl [crizotinib]
# Summary of the method: as §1
# [14] = compound: C[C@H](C1=CC=C(C=C1)C(=O)NC2=C3C=CNC3=NC=C2)N
# Summary of the method: as §1
# [15] = compound: C[C@H](Nc1ncnc2nc[nH]c12)c1cc2cccc(Cl)c2c(=O)n1-c1ccccc1 [duvelisib]
# Summary of the method: as §1
# [16] = compound: Cc1cc(Nc2cc(CN3CCOCC3)c3nc(C)c(Cc4ccc(Cl)cc4F)n3n2)n[nH]1 [gandotinib]
# Summary of the method: as §1
# [17] = compound: Cc1cc(Nc2cc(N3CCN(C)CC3)nc(Sc3ccc(NC(=O)C4CC4)cc3)n2)n[nH]1 [tozasertib]
# Summary of the method: as §1
# [18] = compound: Cc1ccc(-n2nc(C(C)(C)C)cc2NC(=O)Nc2ccc(OCCN3CCOCC3)c3ccccc23)cc1 [doramapimod]
# Summary of the method: as §1
# [19] = compound: Cc1ccc(NC(=O)c2ccc(CN3CC[C@H](N(C)C)C3)c(C(F)(F)F)c2)cc1Nc1nccc(-c2cncnc2)n1 [bafetinib]
# Summary of the method: as §1
# [20] = compound: Cc1cccc(CC(=O)N2CCc3c2ccc(-c2cn(C)c4ncnc(N)c24)c3F)n1
# Summary of the method: as §1
Target,log2 fold change [1],log2 fold change [2],log2 fold change [3],log2 fold change [4],log2 fold change [5],log2 fold change [6],log2 fold change [7],log2 fold change [8],log2 fold change [9],log2 fold change [10],log2 fold change [11],log2 fold change [12],log2 fold change [13],log2 fold change [14],log2 fold change [15],log2 fold change [16],log2 fold change [17],log2 fold change [18],log2 fold change [19],log2 fold change [20]
PRCC (UniProt Q92733),inactive: -0.005,inactive: 0.007,inactive: 0.028,inactive: 0.048,inactive: 0.029,inactive: -0.03,inactive: 0.078,inactive: -0.026,inactive: -0.022,inactive: 0.028,inactive: 0.01,inactive: 0.02,inactive: 0.023,inactive: -0.015,inactive: -0.023,inactive: 0.086,inactive: -0.057,inactive: 0.049,inactive: 0.028,inactive: -0.018
PRMT9 (UniProt Q6P2P2),inactive: -0.032,inactive: -0.031,inactive: -0.002,inactive: -0.015,inactive: -0.018,inactive: 0.001,inactive: 0.01,inactive: -0.018,inactive: 0.011,inactive: 0.014,inactive: -0.017,inactive: -0.009,inactive: -0.007,inactive: -0.088,inactive: 0.033,inactive: 0.012,inactive: 0.023,inactive: -0.038,inactive: -0.049,inactive: 0.052
PRMT8 (UniProt Q9NR22),inactive: -0.11,inactive: -0.019,inactive: 0.001,inactive: -0.103,inactive: -0.005,inactive: -0.002,inactive: 0.004,inactive: -0.01,inactive: 0.016,inactive: 0.034,inactive: -0.011,inactive: 0.004,inactive: -0.037,active: -0.256,inactive: 0.012,inactive: 0.071,inactive: 0.008,inactive: -0.001,inactive: -0.112,inactive: 0.168
PPP6R3 isoform 5 (UniProt Q5H9R7),inactive: -0.028,inactive: -0.004,inactive: -0.013,inactive: 0.003,inactive: -0.003,inactive: 0.015,inactive: -0.068,inactive: -0.013,inactive: 0.003,inactive: 0.016,inactive: 0,inactive: -0.01,inactive: -0.012,inactive: -0.037,inactive: 0.028,inactive: 0.037,inactive: -0.002,inactive: 0.025,inactive: -0.027,inactive: 0.02
PPM1E (UniProt Q8WY54),inactive: -0.027,inactive: -0.011,inactive: 0.008,inactive: 0.019,inactive: -0.119,inactive: 0.006,inactive: 0.014,inactive: 0.007,inactive: -0.036,inactive: -0.077,inactive: 0.002,inactive: -0.065,inactive: 0.043,inactive: -0.057,inactive: 0.023,inactive: 0.05,inactive: -0.018,inactive: 0.053,inactive: 0.023,inactive: 0.052
PPP1R9B (UniProt Q96SB3),inactive: 0.059,inactive: 0.056,inactive: 0.039,inactive: 0.018,inactive: 0.021,inactive: 0.002,inactive: 0.006,inactive: 0.025,inactive: -0.01,inactive: 0.01,inactive: -0.013,inactive: -0.08,inactive: 0.029,inactive: 0.14,inactive: -0.025,inactive: -0.089,inactive: -0.048,inactive: 0.026,inactive: 0.002,inactive: -0.098
PPIL2 (UniProt Q13356),inactive: -0.006,inactive: -0.1,inactive: -0.006,inactive: -0.024,inactive: 0.056,inactive: -0.004,inactive: 0.036,inactive: -0.018,inactive: 0.027,inactive: 0.005,inactive: -0.034,inactive: -0.014,inactive: -0.037,inactive: -0.011,inactive: -0.047,inactive: -0.019,inactive: 0.047,inactive: 0.043,inactive: -0.022,inactive: 0.054
PREB (UniProt Q9HCU5),inactive: -0.018,inactive: -0.042,inactive: 0.011,inactive: 0.057,inactive: -0.003,inactive: -0.014,inactive: -0.077,inactive: -0.028,inactive: 0.017,inactive: 0.03,inactive: -0.038,inactive: -0.045,inactive: -0.009,inactive: -0.057,inactive: 0.049,inactive: 0.035,inactive: -0.001,inactive: 0.031,inactive: -0.02,inactive: -0.001
PRPF3 (UniProt O43395),inactive: 0.041,inactive: -0.087,inactive: -0.025,inactive: -0.064,inactive: 0.028,inactive: 0.016,inactive: -0.003,inactive: 0.038,inactive: 0.005,inactive: -0.024,inactive: 0.02,inactive: 0.022,inactive: -0.016,inactive: 0.08,inactive: -0.035,inactive: -0.053,inactive: -0.022,inactive: -0.008,inactive: -0.035,inactive: -0.048
PPIP5K2 (UniProt O43314),inactive: 0.022,inactive: -0.074,inactive: 0.029,inactive: 0.032,inactive: -0.031,inactive: 0.003,inactive: 0.078,inactive: -0.007,inactive: -0.007,inactive: -0.017,inactive: -0.009,inactive: -0.006,inactive: -0.05,inactive: 0.074,inactive: 0.072,inactive: -0.114,inactive: 0.022,inactive: -0.018,inactive: -0.044,inactive: -0.052
PRIM1 (UniProt P49642),inactive: 0,inactive: -0.11,inactive: 0.023,inactive: -0.012,inactive: 0.033,inactive: 0.052,inactive: 0.041,inactive: -0.054,inactive: -0.019,inactive: -0.008,inactive: -0.02,inactive: 0.023,inactive: -0.064,inactive: 0.024,inactive: 0.004,inactive: -0.099,inactive: 0.027,inactive: -0.022,inactive: -0.077,inactive: 0.007
PPP1R9A isoform 3 (UniProt Q9ULJ8),inactive: -0.029,inactive: 0.059,inactive: 0.029,inactive: 0.194,inactive: 0.011,inactive: -0.049,inactive: 0.09,inactive: 0.047,inactive: 0.002,inactive: 0.051,inactive: -0.012,inactive: -0.018,inactive: 0.016,inactive: -0.049,inactive: 0.077,inactive: -0.062,inactive: -0.164,inactive: 0.036,inactive: -0.057,inactive: 0.06
PPP1R21 (UniProt Q6ZMI0),inactive: -0.012,inactive: 0.07,inactive: 0.021,inactive: 0.008,inactive: -0.037,inactive: 0.002,inactive: 0.159,inactive: 0.05,inactive: -0.001,inactive: -0.004,inactive: -0.012,inactive: -0.037,inactive: -0.029,inactive: 0.028,inactive: 0.017,inactive: -0.074,inactive: -0.081,inactive: 0.054,inactive: -0.091,inactive: 0.061
PRKAR2A (UniProt P13861),inactive: -0.028,inactive: -0.019,inactive: -0.176,inactive: -0.085,inactive: -0.017,inactive: 0.037,inactive: 0.142,inactive: 0.002,inactive: -0.062,inactive: 0.024,inactive: 0.036,inactive: -0.094,inactive: 0.013,inactive: 0.006,inactive: -0.025,active: -0.232,inactive: 0.015,inactive: 0.036,inactive: -0.026,inactive: 0.031
PRKAG2 (UniProt Q9UGJ0),inactive: 0.094,inactive: -0.132,inactive: 0.245,inactive: 0.194,inactive: -0.183,inactive: 0.003,inactive: -0.129,inactive: -0.002,inactive: 0.098,inactive: -0.014,inactive: -0.041,inactive: 0.016,inactive: 0.063,inactive: -0.022,inactive: -0.028,inactive: 0.056,inactive: 0.134,inactive: 0.015,inactive: -0.044,inactive: -0.087
PPP3CB (UniProt P16298),inactive: -0.025,inactive: -0.012,inactive: 0.011,inactive: -0.054,inactive: -0.007,inactive: -0.002,inactive: -0.009,inactive: 0.029,inactive: 0.021,inactive: 0.013,inactive: -0.052,inactive: -0.009,inactive: 0.013,inactive: -0.126,inactive: 0.011,inactive: 0.039,inactive: 0.002,inactive: -0.019,inactive: -0.002,inactive: 0.086

# Just log2 fold change [10], log2 fold change [11] and log2 fold change [18], for some of the entries so far:
Target | log2 fold change [10] | log2 fold change [11] | log2 fold change [18]
PRPF3 (UniProt O43395) | inactive: -0.024 | inactive: 0.02 | inactive: -0.008
PRKAG2 (UniProt Q9UGJ0) | inactive: -0.014 | inactive: -0.041 | inactive: 0.015
